# Experimental data as given in article PMC7486400, “Allosteric coupling between α-rings of the 20S proteasome” (Nature Communications, 2020).
# The chains behind the UniProt entries cited, without tags or fusion partners. Where a name states a change or a piece, a line headed by the entry shows the natural chain unless it says otherwise.
# UniProt P28061: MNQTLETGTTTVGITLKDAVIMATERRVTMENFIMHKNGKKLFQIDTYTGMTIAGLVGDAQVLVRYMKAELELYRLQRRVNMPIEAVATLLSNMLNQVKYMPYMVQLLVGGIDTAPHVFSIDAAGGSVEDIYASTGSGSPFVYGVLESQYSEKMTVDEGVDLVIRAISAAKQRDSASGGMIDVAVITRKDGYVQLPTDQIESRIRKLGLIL
# These are yes or no findings as the source states them, for the method shown. Some entries that bind do so weakly or less than the wild type.
# B1: PAN (Proteasomal Activator Nucleotidase) ATPase from Methanococcus jannaschii, wild type (enzyme, UniProt Q58576 1-430)
# chain: MVFEEFISTELKKEKKAFTEEFKEEKEINDNSNLKNDLLKEELQEKARIAELESRILKLELEKKELERENLQLMKENEILRRELDRMRVPPLIVGTVVDKVGERKVVVKSSTGPSFLVNVSHFVNPDDLAPGKRVCLNQQTLTVVDVLPENKDYRAKAMEVDERPNVRYEDIGGLEKQMQEIREVVELPLKHPELFEKVGIEPPKGILLYGPPGTGKTLLAKAVATETNATFIRVVGSELVKKFIGEGASLVKDIFKLAKEKAPSIIFIDEIDAIAAKRTDALTGGDREVQRTLMQLLAEMDGFDARGDVKIIGATNRPDILDPAILRPGRFDRIIEVPAPDEKGRLEILKIHTRKMNLAEDVNLEEIAKMTEGCVGAELKAICTEAGMNAIRELRDYVTMDDFRKAVEKIMEKKKVKVKEPAHLDVLYR
# B2: Thermoplasma acidophilium 20S proteasome α-subunit, wild type, full-length (natural protein, UniProt P25156 1-233, looked up)
# chain: MQQGQMAYDRAITVFSPDGRLFQVEYAREAVKKGSTALGMKFANGVLLISDKKVRSRLIEQNSIEKIQLIDDYVAAVTSGLVADARVLVDFARISAQQEKVTYGSLVNIENLVKRVADQMQQYTQYGGVRPYGVSLIFAGIDQIGPRLFDCDPAGTINEYKATAIGSGKDAVVSFLEREYKENLPEKEAVTLGIKALKSSLEEGEELKAPEIASITVGNKYRIYDQEEVKKFL
# notes: 20S proteasome α-subunit of Thermoplasma acidophilum, full-length; For the asymmetric CP the wild-type ring was co-expressed from α-His and α-MBP (both C-terminal, TEV site before the tag); All tags were removed after final purification, so the subunit is untagged in the EM samples; All these forms are kept as one molecule here; also called αWT; αwt
# Experiments:
# [1] = molecular target: T1, in vitro assembled asymmetric 20S core particle used with PAN (one α-ring R28L, one α-ring K66A) (Thermoplasma acidophilium) (UniProt P25156+P28061); assay: negative stain EM; in vitro assembled CP incubated with excess activator (16 nM CP with 112 nM PA26PANc; PAN in excess, 4:1 PAN:CP with nucleotide); Supplementary Fig. 3; both purified
# [2] = molecular target: in vitro assembled symmetric 20S core particle used with PAN (α-rings with R28L) (Thermoplasma acidophilium) (UniProt P25156+P28061); assay: as above
# [3] = molecular target: Thermoplasma acidophilium 20S proteasome α-subunit R28L (Thermoplasma acidophilium) (UniProt P25156); assay: cryo-EM structure; single-particle cryo-EM of asymmetric CP with one activator bound, with or without substrate (LFP, GFP-ssrA), C7 symmetry applied, about 3 Å; PAN complexes with nucleotide; both purified
# [4] = molecular target: T1, in vitro assembled asymmetric 20S core particle used with PAN (one α-ring R28L, one α-ring K66A) (Thermoplasma acidophilium); assay: as above
# [5] = molecular target: Thermoplasma acidophilium 20S proteasome α-subunit, wild type, full-length (Thermoplasma acidophilium) (UniProt P25156); assay: as above
Binder,binding [1],binding [2],binding [3],binding [4],binding [5]
B1,binds,binds,binds,binds,
B2,,,,,binds
